Consider one substance from PMC8357790.

The chains behind the UniProt entries cited, without tags or fusion partners.
UniProt Q8N122: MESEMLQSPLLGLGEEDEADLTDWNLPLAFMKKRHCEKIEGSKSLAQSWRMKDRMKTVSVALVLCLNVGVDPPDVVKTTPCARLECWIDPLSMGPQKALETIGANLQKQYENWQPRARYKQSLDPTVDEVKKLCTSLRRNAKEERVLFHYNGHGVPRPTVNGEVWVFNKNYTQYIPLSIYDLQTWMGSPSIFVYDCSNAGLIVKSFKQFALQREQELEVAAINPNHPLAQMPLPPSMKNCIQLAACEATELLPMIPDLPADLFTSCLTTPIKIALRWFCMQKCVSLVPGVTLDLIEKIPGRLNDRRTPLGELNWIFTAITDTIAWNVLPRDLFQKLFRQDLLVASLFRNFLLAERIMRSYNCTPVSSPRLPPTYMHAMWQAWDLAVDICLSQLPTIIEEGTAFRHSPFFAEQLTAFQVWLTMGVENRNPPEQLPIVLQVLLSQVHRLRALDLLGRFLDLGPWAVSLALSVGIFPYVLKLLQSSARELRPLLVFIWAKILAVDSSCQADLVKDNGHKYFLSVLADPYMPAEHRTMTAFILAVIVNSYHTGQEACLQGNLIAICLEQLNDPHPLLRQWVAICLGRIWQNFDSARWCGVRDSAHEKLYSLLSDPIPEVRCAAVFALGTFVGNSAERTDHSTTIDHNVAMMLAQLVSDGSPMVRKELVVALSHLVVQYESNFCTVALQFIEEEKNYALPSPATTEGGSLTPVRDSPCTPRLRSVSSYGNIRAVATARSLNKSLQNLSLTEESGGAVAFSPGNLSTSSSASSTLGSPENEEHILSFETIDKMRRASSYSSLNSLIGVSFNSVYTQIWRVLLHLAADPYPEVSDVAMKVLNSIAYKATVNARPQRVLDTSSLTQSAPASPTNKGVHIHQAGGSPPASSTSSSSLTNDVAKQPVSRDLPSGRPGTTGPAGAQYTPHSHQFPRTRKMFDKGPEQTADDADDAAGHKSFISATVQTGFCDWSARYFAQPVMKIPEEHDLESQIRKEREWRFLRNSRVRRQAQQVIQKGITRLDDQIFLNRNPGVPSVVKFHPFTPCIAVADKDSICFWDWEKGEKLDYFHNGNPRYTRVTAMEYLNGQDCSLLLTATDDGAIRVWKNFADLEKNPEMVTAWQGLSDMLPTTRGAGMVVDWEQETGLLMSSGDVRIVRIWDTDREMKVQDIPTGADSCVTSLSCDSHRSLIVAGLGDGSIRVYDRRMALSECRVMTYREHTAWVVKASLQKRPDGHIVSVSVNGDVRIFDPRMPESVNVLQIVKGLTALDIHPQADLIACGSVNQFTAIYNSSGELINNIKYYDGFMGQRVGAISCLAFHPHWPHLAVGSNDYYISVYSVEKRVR

Results are given in words; binding and its absence hold for the method and conditions named. Some entries that bind do so weakly or less than the wild type. Tags and fused reporters may be left off the sequences shown.

The target in this test is T1, FLAG-HA-Unkempt (UniProt Q8BL48).
T1 sequence: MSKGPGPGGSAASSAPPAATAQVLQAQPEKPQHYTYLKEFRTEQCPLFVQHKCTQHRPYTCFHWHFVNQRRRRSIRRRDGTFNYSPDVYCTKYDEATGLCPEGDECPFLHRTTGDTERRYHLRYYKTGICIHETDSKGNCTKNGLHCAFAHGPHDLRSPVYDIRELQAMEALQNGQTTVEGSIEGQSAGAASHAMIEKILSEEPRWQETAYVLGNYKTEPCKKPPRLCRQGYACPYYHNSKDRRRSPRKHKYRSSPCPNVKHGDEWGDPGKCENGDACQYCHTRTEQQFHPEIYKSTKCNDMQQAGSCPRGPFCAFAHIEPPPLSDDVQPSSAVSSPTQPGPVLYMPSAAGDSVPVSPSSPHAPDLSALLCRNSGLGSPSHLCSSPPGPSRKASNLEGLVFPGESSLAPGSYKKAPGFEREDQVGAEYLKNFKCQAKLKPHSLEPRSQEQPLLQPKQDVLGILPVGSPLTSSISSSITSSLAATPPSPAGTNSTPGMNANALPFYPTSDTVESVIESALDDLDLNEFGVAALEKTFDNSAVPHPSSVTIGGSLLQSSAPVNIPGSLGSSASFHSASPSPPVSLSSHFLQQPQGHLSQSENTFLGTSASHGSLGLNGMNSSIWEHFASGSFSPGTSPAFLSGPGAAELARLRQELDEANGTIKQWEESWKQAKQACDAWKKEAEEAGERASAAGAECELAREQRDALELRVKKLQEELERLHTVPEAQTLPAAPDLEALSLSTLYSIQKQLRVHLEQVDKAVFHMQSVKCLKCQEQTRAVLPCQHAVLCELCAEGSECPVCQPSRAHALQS
As to the kind of experiment: far-Western, overlay or dot blot; Raptor overlay assay: purified FLAG-HA-Unkempt, mock purified extract or recombinant 4E-BP1 dotted onto PVDF membrane; incubated with lysate of HEK293 cells overexpressing HA-Raptor, HA-Raptor mutant 4 or carrying empty vector; probed with an anti-Raptor antibody; only the target purified.

“HA-Raptor (wild-type) (from UniProt Q8N122 1-1335)”: the binding entry was “binds”.
